# Assay results taken from publication PMC4507757.
# T1: starch branching enzyme I (BEI) (rice, Oryza sativa L. japonica cv. Nipponbare (endogenous in developing endosperm)) (UniProt Q01401)
# T1 sequence: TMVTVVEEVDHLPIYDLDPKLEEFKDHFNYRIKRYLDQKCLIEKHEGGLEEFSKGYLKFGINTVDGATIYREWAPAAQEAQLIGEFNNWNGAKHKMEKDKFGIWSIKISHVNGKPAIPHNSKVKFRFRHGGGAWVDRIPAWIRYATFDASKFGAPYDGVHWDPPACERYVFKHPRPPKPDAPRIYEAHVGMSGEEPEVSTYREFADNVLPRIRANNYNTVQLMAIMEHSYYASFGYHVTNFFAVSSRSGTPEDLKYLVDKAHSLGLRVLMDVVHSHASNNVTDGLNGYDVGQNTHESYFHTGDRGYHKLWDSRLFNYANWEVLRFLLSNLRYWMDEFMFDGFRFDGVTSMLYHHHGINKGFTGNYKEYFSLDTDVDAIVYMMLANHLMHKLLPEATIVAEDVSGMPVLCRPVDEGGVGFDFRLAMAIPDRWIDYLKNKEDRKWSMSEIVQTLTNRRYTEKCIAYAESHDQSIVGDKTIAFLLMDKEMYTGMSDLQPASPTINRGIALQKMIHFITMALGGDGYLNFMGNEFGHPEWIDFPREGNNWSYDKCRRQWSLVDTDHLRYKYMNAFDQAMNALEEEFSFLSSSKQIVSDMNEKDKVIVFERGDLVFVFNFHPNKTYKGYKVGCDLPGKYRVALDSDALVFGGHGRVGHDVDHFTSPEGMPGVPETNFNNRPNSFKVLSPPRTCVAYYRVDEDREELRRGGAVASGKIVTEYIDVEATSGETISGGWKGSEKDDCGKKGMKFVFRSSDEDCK
# T2: starch synthase I (SSI) (rice, Oryza sativa L. japonica cv. Nipponbare (endogenous in developing endosperm)) (UniProt Q0DEC8)
# T2 sequence: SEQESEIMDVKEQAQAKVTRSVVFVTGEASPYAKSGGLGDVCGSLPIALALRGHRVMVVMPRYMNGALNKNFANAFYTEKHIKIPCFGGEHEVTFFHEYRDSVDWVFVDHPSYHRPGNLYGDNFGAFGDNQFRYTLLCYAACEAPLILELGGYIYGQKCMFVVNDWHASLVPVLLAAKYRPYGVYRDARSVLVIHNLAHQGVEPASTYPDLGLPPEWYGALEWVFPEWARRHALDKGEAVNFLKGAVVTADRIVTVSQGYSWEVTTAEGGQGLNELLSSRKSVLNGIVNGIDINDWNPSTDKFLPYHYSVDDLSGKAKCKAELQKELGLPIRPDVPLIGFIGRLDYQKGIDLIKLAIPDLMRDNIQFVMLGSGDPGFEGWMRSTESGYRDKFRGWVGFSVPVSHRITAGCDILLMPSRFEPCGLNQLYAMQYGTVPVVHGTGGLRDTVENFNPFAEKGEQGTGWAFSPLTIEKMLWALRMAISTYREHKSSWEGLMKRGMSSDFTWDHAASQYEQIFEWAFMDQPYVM
# T3: starch synthase IIa (SSIIa) (rice, Oryza sativa L. japonica cv. Nipponbare (endogenous in developing endosperm)) (UniProt Q0DDE3)
# T3 sequence: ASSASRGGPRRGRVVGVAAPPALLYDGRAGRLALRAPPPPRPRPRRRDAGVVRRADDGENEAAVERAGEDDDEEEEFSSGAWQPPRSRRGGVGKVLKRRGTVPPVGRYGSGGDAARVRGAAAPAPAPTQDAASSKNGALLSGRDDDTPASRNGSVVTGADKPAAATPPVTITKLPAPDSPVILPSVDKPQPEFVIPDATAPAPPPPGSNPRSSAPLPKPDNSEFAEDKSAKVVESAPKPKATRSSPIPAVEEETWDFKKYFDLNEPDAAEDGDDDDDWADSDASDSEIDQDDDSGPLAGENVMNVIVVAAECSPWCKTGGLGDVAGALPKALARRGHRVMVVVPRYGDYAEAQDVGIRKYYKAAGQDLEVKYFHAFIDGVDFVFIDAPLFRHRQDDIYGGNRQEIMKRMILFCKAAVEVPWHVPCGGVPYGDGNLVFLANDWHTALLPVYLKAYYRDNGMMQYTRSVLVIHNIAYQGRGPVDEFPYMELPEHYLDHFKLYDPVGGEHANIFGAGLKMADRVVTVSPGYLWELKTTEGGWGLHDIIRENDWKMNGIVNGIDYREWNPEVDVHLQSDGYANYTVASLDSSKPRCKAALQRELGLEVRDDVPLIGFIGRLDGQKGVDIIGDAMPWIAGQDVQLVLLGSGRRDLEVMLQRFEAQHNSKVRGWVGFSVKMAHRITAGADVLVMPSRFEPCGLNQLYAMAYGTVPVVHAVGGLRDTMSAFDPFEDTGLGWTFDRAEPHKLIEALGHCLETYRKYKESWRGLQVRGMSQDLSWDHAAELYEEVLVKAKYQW
# Tests used:
# [1] = biological target: T1, starch branching enzyme I (BEI) (rice, Oryza sativa L. japonica cv. Nipponbare (endogenous in developing endosperm)); experiment: co-IP; soluble extract of developing rice endosperm mixed with isozyme-specific antibodies (pre-immune serum as control) 1.5 h at 4 °C, protein A-Sepharose 1 h at 4 °C; 10 mM HEPES-KOH pH 7.5, 100 mM NaCl, 1 mM DTT; eight washes; bound proteins analysed by western blotting
# [2] = biological target: T2, starch synthase I (SSI) (rice, Oryza sativa L. japonica cv. Nipponbare (endogenous in developing endosperm)); experiment: as above
# [3] = biological target: T3, starch synthase IIa (SSIIa) (rice, Oryza sativa L. japonica cv. Nipponbare (endogenous in developing endosperm)); experiment: as above
# [4] = biological target: starch branching enzyme IIa (BEIIa) (rice, Oryza sativa L. japonica cv. Nipponbare (endogenous in developing endosperm)); experiment: as above
# [5] = biological target: starch branching enzyme IIb (BEIIb) (rice, Oryza sativa L. japonica cv. Nipponbare (endogenous in developing endosperm)); experiment: as above
# [6] = biological target: starch branching enzyme IIb (BEIIb) (rice, Oryza sativa L. japonica cv. Nipponbare (endogenous in developing endosperm)); experiment: native gel or EMSA; blue native PAGE (3-12% acrylamide BIS-TRIS) of developing rice endosperm extract; western blotting of lane slices from a single gel
# [7] = biological target: starch branching enzyme IIb (BEIIb) (rice, Oryza sativa L. japonica cv. Nipponbare (endogenous in developing endosperm)); experiment: SEC; gel permeation chromatography of soluble developing rice endosperm extract on Superdex 200 10/300 at 4 °C; 10 mM HEPES-KOH pH 7.5, 100 mM NaCl; fractions analysed by western blotting and native-PAGE zymograms
# [8] = biological target: pullulanase (PUL) (rice, Oryza sativa L. japonica cv. Nipponbare (endogenous in developing endosperm)); experiment: co-IP; soluble extract of developing rice endosperm mixed with isozyme-specific antibodies (pre-immune serum as control) 1.5 h at 4 °C, protein A-Sepharose 1 h at 4 °C; 10 mM HEPES-KOH pH 7.5, 100 mM NaCl, 1 mM DTT; eight washes; bound proteins analysed by western blotting
Molecule,binding [1],binding [4],binding [5],further results
pullulanase (PUL) (enzyme),binds,–,–,–
"starch branching enzyme I (BEI) (enzyme, UniProt Q01401 65-820) TMVTVVEEVDHLPIYDLDPKLEEFKDHFNYRIKRYLDQKCLIEKHEGGLEEFSKGYLKFGINTVDGATIYREWAPAAQEAQLIGEFNNWNGAKHKMEKDKFGIWSIKISHVNGKPAIPHNSKVKFRFRHGGGAWVDRIPAWIRYATFDASKFGAPYDGVHWDPPACERYVFKHPRPPKPDAPRIYEAHVGMSGEEPEVSTYREFADNVLPRIRANNYNTVQLMAIMEHSYYASFGYHVTNFFAVSSRSGTPEDLKYLVDKAHSLGLRVLMDVVHSHASNNVTDGLNGYDVGQNTHESYFHTGDRGYHKLWDSRLFNYANWEVLRFLLSNLRYWMDEFMFDGFRFDGVTSMLYHHHGINKGFTGNYKEYFSLDTDVDAIVYMMLANHLMHKLLPEATIVAEDVSGMPVLCRPVDEGGVGFDFRLAMAIPDRWIDYLKNKEDRKWSMSEIVQTLTNRRYTEKCIAYAESHDQSIVGDKTIAFLLMDKEMYTGMSDLQPASPTINRGIALQKMIHFITMALGGDGYLNFMGNEFGHPEWIDFPREGNNWSYDKCRRQWSLVDTDHLRYKYMNAFDQAMNALEEEFSFLSSSKQIVSDMNEKDKVIVFERGDLVFVFNFHPNKTYKGYKVGCDLPGKYRVALDSDALVFGGHGRVGHDVDHFTSPEGMPGVPETNFNNRPNSFKVLSPPRTCVAYYRVDEDREELRRGGAVASGKIVTEYIDVEATSGETISGGWKGSEKDDCGKKGMKFVFRSSDEDCK",–,binds weakly,binds,binding [8]: binds

# Continued, in another order:
binding [1],binding [4],binding [5],Molecule,further results
binds,–,–,starch branching enzyme IIb (BEIIb),binding [2]: binds; binding [3]: binds
–,binds weakly,binds,"starch synthase IIa (SSIIa) (enzyme, UniProt Q0DDE3 17-810) ASSASRGGPRRGRVVGVAAPPALLYDGRAGRLALRAPPPPRPRPRRRDAGVVRRADDGENEAAVERAGEDDDEEEEFSSGAWQPPRSRRGGVGKVLKRRGTVPPVGRYGSGGDAARVRGAAAPAPAPTQDAASSKNGALLSGRDDDTPASRNGSVVTGADKPAAATPPVTITKLPAPDSPVILPSVDKPQPEFVIPDATAPAPPPPGSNPRSSAPLPKPDNSEFAEDKSAKVVESAPKPKATRSSPIPAVEEETWDFKKYFDLNEPDAAEDGDDDDDWADSDASDSEIDQDDDSGPLAGENVMNVIVVAAECSPWCKTGGLGDVAGALPKALARRGHRVMVVVPRYGDYAEAQDVGIRKYYKAAGQDLEVKYFHAFIDGVDFVFIDAPLFRHRQDDIYGGNRQEIMKRMILFCKAAVEVPWHVPCGGVPYGDGNLVFLANDWHTALLPVYLKAYYRDNGMMQYTRSVLVIHNIAYQGRGPVDEFPYMELPEHYLDHFKLYDPVGGEHANIFGAGLKMADRVVTVSPGYLWELKTTEGGWGLHDIIRENDWKMNGIVNGIDYREWNPEVDVHLQSDGYANYTVASLDSSKPRCKAALQRELGLEVRDDVPLIGFIGRLDGQKGVDIIGDAMPWIAGQDVQLVLLGSGRRDLEVMLQRFEAQHNSKVRGWVGFSVKMAHRITAGADVLVMPSRFEPCGLNQLYAMAYGTVPVVHAVGGLRDTMSAFDPFEDTGLGWTFDRAEPHKLIEALGHCLETYRKYKESWRGLQVRGMSQDLSWDHAAELYEEVLVKAKYQW",–
–,binds weakly,binds,"starch synthase I (SSI) (enzyme, UniProt Q0DEC8 114-641) SEQESEIMDVKEQAQAKVTRSVVFVTGEASPYAKSGGLGDVCGSLPIALALRGHRVMVVMPRYMNGALNKNFANAFYTEKHIKIPCFGGEHEVTFFHEYRDSVDWVFVDHPSYHRPGNLYGDNFGAFGDNQFRYTLLCYAACEAPLILELGGYIYGQKCMFVVNDWHASLVPVLLAAKYRPYGVYRDARSVLVIHNLAHQGVEPASTYPDLGLPPEWYGALEWVFPEWARRHALDKGEAVNFLKGAVVTADRIVTVSQGYSWEVTTAEGGQGLNELLSSRKSVLNGIVNGIDINDWNPSTDKFLPYHYSVDDLSGKAKCKAELQKELGLPIRPDVPLIGFIGRLDYQKGIDLIKLAIPDLMRDNIQFVMLGSGDPGFEGWMRSTESGYRDKFRGWVGFSVPVSHRITAGCDILLMPSRFEPCGLNQLYAMQYGTVPVVHGTGGLRDTVENFNPFAEKGEQGTGWAFSPLTIEKMLWALRMAISTYREHKSSWEGLMKRGMSSDFTWDHAASQYEQIFEWAFMDQPYVM",binding [6]: binds; binding [7]: binds

# No constants are given. Whether binding was seen depends on the method and setting. Binding calls can cover weak binding; strength is not graded here. For some of these results: Binding seen in cells or lysates may run through a third protein.
